Reference: patent US20210008028A1, “COMPOSITIONS AND METHODS FOR TREATING DIARRHEAL DISEASES” (VANESSA RESEARCH, INC., priority 2018, published 2021)
At least one structure is not confirmed: it was looked up by name or label, or the drawing left a doubt.

Test system: CTx-induced fluid secretion in the mouse intestine
Assay: Cholera-toxin induced closed-loop mouse diarrheal model, individual polyphenols and their combination
Type: in vivo
Settings: individual compound, dilution of original concentration, CTx 1 μg per loop
Description: Following identification, individual reagents of cyanidin, delphinidin, epicatechin gallate and epigallocatechin gallate were acquired from ChromaDex (Chromadex, Irvine, Calif., USA) and tested in the same cholera-toxin induced closed-loop mouse diarrheal model described above. We sought and resolved the IC^50 concentration of each individual component as relevant for the treatment of cholera-toxin induced intestinal secretion.
Mice (19-35 g) were fasted for 24-48 h, weighed and anesthetized with Avertin Sigma-Aldrich, St. Louise, Mo., USA) (250 mg/kg IP induction dose f.b. 2.6 mg IP every 30-45 minutes as needed for maintenance of anesthesia). […]
Abdomen was opened. […] After ligation, one loop was injected with 100 μl of PBS, second loop was injected with CTx solution (Cayman chemicals, 1 μg in 100 μl PBS and third loop was injected with CTx and polyphenol solution (Chromadex, Irvine, Calif., USA) in 100 μl of PBS. Injected loops were photographed and carefully placed back into the abdominal cavity and then abdomen was closed with two sutures. After 4 to 6-hour incubation, animal was euthanized and entire length of small intestine, cecum and ascending transverse colon were removed as a single prep. Loops were excised, trimmed of fat, measured and weighted. Mice were euthanized by cervical dislocation or an overdose injection of Avertin. […]

Compound: O=C(O[C@@H]1Cc2c(O)cc(O)cc2O[C@@H]1c1cc(O)c(O)c(O)c1)c1cc(O)c(O)c(O)c1 [F1D, Epigallocatechin gallate]
- Dilution that did not have any effect on the CTx-induced fluid secretion: 1:1,000
